PubChem BioAssay AID1259254, NCATS | 2017
Test: 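Finding genes that stop cells copying their DNA twice in one cycle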 (primary screen). System: human HCT116 colorectal cancer cells. Knock-down reagent: single siRNA against human genes. Time to read-out: 3 days. Measured: 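Imaged Hoechst DNA stain sorts each cell into a cycle phase by DNA amount; per plate, G2 fraction set to 0% for non-targeting and 100% for GMNN siRNA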. Scale: G2 robust z-score and G2 cells, % of GMNN control: higher = more G2 cells, more excess DNA replication; raw share of cells in G2: higher = larger share of cells with G2 DNA content. Rule for the call: 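Active siRNAs have a G2 robust z of 5 or more median absolute deviations over the median, which in these data means about 38% or higher of GMNN control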.
This is an unselected part of about 59,000 deposited reagents. Of all reagents, about 1,550 (2.6%) got an active call. 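G2 share is only a proxy for re-replication; each gene was hit by three separate siRNAs, and active genes were retested.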 Raw values vary from plate to plate and are shown uncorrected. Reagents against one gene are numbered here. No sequences are given here. Not given: the amount of reagent.

no.	gene	reagent no.	G2 robust z-score	G2 cells, % of GMNN control	raw share of cells in G2 (%)	outcome
1	OSM	1	0.0465	3.29	6.37	inactive
2	OSM	2	1.51	13.6	9.58	inactive
3	OSM	3	3.76	29.5	14	inactive
4	RPL13AP17	1	-0.762	-2.39	2.94	inactive
5	RPL13AP17	2	0.342	5.38	5.65	inactive
6	RPL13AP17	3	0.395	5.75	7.17	inactive
7	LRRC37A17P	1	-0.034	2.73	4.2	inactive
8	LRRC37A17P	2	0.317	5.2	5.13	inactive
9	LRRC37A17P	3	0.186	4.28	5.27	inactive
10	LRRC37A17P	4	-0.296	0.888	3.59	inactive
11	LRRC37A17P	5	-0.532	-0.773	2.92	inactive
12	LRRC37A17P	6	1.34	12.4	8.68	inactive
13	TES	1	2.23	18.7	10.4	inactive
14	TES	2	-0.532	-0.778	5.81	inactive
15	TES	3	-0.573	-1.06	3.64	inactive
16	NOP10	1	-0.428	-0.0466	4.51	inactive
17	NOP10	2	0.664	7.64	7.3	inactive
18	NOP10	3	0.127	3.86	4.37	inactive
19	ARHGAP27P1	1	-0.503	-0.572	3.87	inactive
20	ARHGAP27P1	2	1.51	13.6	7.8	inactive
21	ARHGAP27P1	3	0.0322	3.19	4.34	inactive
22	TMEM106A	1	-0.188	1.64	2.3	inactive
23	TMEM106A	2	-0.273	1.05	4.51	inactive
24	TMEM106A	3	0.397	5.76	5.05	inactive
25	SLC7A13	1	1.93	16.5	13.8	inactive
26	SLC7A13	2	4.31	33.3	16.9	inactive
27	SLC7A13	3	0.103	3.69	6.25	inactive
28	TAS2R1	1	1.04	10.3	6.49	inactive
29	TAS2R1	2	0.374	5.6	5.99	inactive
30	TAS2R1	3	0.171	4.17	6.13	inactive
31	CYP1A2	1	-0.679	-1.81	3.47	inactive
32	CYP1A2	2	-1.28	-6.04	2.81	inactive
33	CYP1A2	3	-1.43	-7.1	2.4	inactive
34	LRRK2	1	-1.05	-4.43	4.21	inactive
35	LRRK2	2	1.44	13.1	9.95	inactive
36	LRRK2	3	1.51	13.6	8.03	inactive
37	SNRNP25	1	-0.249	1.21	5.11	inactive
38	SNRNP25	2	-0.211	1.48	5.27	inactive
39	SNRNP25	3	-0.52	-0.691	2.52	inactive
40	NAV2	1	-0.372	0.352	4.23	inactive
41	NAV2	2	0.0894	3.6	4.13	inactive
42	NAV2	3	0.513	6.58	5.01	inactive
43	LINC00173	1	-0.548	-0.889	4.42	inactive
44	LINC00173	2	1.71	15	9.26	inactive
45	LINC00173	3	0.672	7.69	6.57	inactive
46	OR5B2	1	-0.767	-2.43	2.94	inactive
47	OR5B2	2	0.143	3.98	5.13	inactive
48	OR5B2	3	2.74	22.2	14.2	inactive
49	BORCS8	1	-0.482	-0.422	3.93	inactive
50	BORCS8	2	-1.2	-5.44	1.38	inactive
51	BORCS8	3	0.564	6.94	5.71	inactive
52	SPTBN2	1	3.2	25.5	16.4	inactive
53	SPTBN2	2	1.09	10.6	8.12	inactive
54	SPTBN2	3	3.61	28.4	13.4	inactive
55	MKLN1	1	0.927	9.49	9.01	inactive
56	MKLN1	2	0.103	3.69	5.68	inactive
57	MKLN1	3	-0.278	1.01	3.72	inactive
58	ATXN3L	1	0.344	5.39	6.37	inactive
59	ATXN3L	2	-0.124	2.1	3.66	inactive
60	ATXN3L	3	-0.234	1.32	3.34	inactive
61	ENPP3	1	1	10	8.06	inactive
62	ENPP3	2	1.32	12.2	7.99	inactive
63	ENPP3	3	2.02	17.2	8.67	inactive
64	ANKRD36BP2	1	-0.154	1.88	4.21	inactive
65	ANKRD36BP2	2	0.256	4.77	5.54	inactive
66	ANKRD36BP2	3	3.02	24.2	13.5	inactive
67	OSMR	1	0.436	6.04	7.38	inactive
68	OSMR	2	1.34	12.4	10.2	inactive
69	OSMR	3	-0.438	-0.115	4.67	inactive

No new results follow: entries from further up.
no.	gene	reagent no.	G2 robust z-score	G2 cells, % of GMNN control	raw share of cells in G2 (%)	outcome
57	MKLN1	3	-0.278	1.01	3.72	inactive
58	ATXN3L	1	0.344	5.39	6.37	inactive
59	ATXN3L	2	-0.124	2.1	3.66	inactive
60	ATXN3L	3	-0.234	1.32	3.34	inactive
61	ENPP3	1	1	10	8.06	inactive
62	ENPP3	2	1.32	12.2	7.99	inactive
63	ENPP3	3	2.02	17.2	8.67	inactive
64	ANKRD36BP2	1	-0.154	1.88	4.21	inactive
65	ANKRD36BP2	2	0.256	4.77	5.54	inactive
66	ANKRD36BP2	3	3.02	24.2	13.5	inactive
67	OSMR	1	0.436	6.04	7.38	inactive
